# Assay results from patent EP1200455B1, “ENZYME CATALYZED THERAPEUTIC ACTIVATION” (Celmed Oncology (USA), Inc., priority 1999, dated 2001).
# At least one structure is not confirmed: it was looked up by name or label, or the drawing left a doubt.
# Key:
# Assay type in all cases: cell-based, human
# [1] = system: Det551; assay: Crystal violet cell proliferation inhibition assay; conditions: Table 7, crystal violet procedure; normal cells; quantity and unit inferred; 4320 min; read-out: Cytotoxic Activity, Det551
# Description: (§1) Compound concentrations from 1 µM to 3000 µM were tested.
# (§2) Numbering in Tables 5 and 6 refer to the structures, shown infra. […] MCF7-TDX was derived from MCF7 breast tumor cells via selection in cell culture in the presence of Tomudex, a direct inhibitor of TS. […] Similarly, H630R10 is a 5FU (fluoropyrimidine) resistant colon cancer epithelial cell line derived from H630 colon cancer cells. […] HT1080, #12, is a fibrosarcoma tumor cell line that expresses high levels ofTS via a transgene introduced into HT1080 tumor cells. Normal cell lines used in these assays include CCD180co (normal colon epithelium) and Det551 (normal skin).
# (§3) Table 7. Cytotoxic Activity of NB1024 Isomers
# [2] = system: CCd18co; assay: Crystal violet cell proliferation inhibition assay; conditions: Table 7, crystal violet procedure; normal cells; quantity and unit inferred; 4320 min; read-out: Cytotoxic Activity, CCD18co
# Description: as §1, §2, §3
# [3] = system: H630R10; assay: AlamarBlue cell proliferation (cytotoxicity) assay; conditions: 120 hours drug exposure, dose range 10^-3 to 10^-10 M
# Description: Cells growing exponentially were transferred to 384-well flat bottom tissue culture plates. […] After 24 hours (day 0), 25 µL of complete medium containing the compounds over the dose range of 10^-3 to 10^-10 M were added in triplicate. Drug exposure time was 120 hours (day 5), after which growth inhibition was assayed. 5 µL of the redox indicator, alamarBlue, was added to each well (10% v/v).
# as §2
SMILES,CC50 [1],CC50 [2],IC30 (µM) H630R10 [3]
"O=c1[nH]c(=O)n([C@H]2C[C@H](O)[C@@H](CO)O2)cc1/C=C/C=C\Br (single isomer, unassigned; isomer 1) [NB1024 Isomer 1, 5-(4-Bromo-1E,3Z-butadienyl)-2'-dexoyuridine]",> 300 µM,> 300 µM,
"O=c1[nH]c(=O)n([C@H]2C[C@H](O)[C@@H](CO)O2)cc1/C=C/C=C/Br (single isomer, unassigned; isomer 2) [NB1024 Isomer 2, 5-(4-Bromo-1E,3E-butadienyl)-2'-dexoyuridine]",> 300 µM,> 300 µM,
COC(=O)C(C)NP(=O)(OCC1OC(n2ccc(=O)[nH]c2=O)CC1O)Oc1ccccc1 (centres unmarked) [NB1025],,,f92 µM
